Test results taken from patent EP4664463A1, “COMPUTER-IMPLEMENTED METHOD FOR OLFACTORY PROPERTY PREDICTION” (Givaudan SA, priority 2024, dated 2025).
Like-named read-outs stand apart in the source and are kept apart here. At least one structure is not confirmed: it was looked up by name or label, or the drawing left a doubt.

Assays:
OR1N2 [1] = target: T1, OR1N2 (Homo sapiens, UniProt Q8NGR9); format: cell-based; conditions: read-out: Potency EC50; changed C-term SEQ ID NO: 86
T1 construct: expressed in transfected cells; host or cells: HEK293T cells stably expressing human RTP1S (V227I) and RTP2 (L220R)
T1 sequence (Q8NGR9 with tags, fused parts or gaps): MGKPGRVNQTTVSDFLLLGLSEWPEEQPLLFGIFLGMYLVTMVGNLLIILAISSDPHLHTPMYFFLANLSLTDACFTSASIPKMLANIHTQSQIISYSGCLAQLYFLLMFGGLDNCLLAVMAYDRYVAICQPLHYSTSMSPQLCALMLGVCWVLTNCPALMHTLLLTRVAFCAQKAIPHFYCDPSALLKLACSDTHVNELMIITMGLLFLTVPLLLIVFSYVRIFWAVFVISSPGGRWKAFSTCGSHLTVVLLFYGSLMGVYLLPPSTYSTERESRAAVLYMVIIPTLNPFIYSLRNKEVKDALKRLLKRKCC
Description: (§1) To create an expression plasmid, an OR coding sequence fused at the end of TM7 to the desired C-terminus sequence was synthesized by a DNA synthesis service provider (BioCat GmbH, Germany) and inserted into pcDNA3.1(+) (Invitrogen, MA, USA) downstream of the CMV promoter sequence (SEQ ID NO: 82) using BamHI and Notl restriction sites. All the synthetic OR nucleotide sequences described below in Examples 1-15 further contained at their N-terminus a nucleotide sequence encoding a signal peptide (mmLucy-FLAG-rho, SeQ ID NOs: 80, 81) and at the C-terminus the bgh terminator sequence (SEQ ID NO: 83). All the OR expression plasmids also contain a Kozak sequence (GCCACC) between the BamHI restriction site and the start codon of the signal peptide. These plasmids thus contain a constitutively expressed OR gene.

OR1N2 [2] = target: T2, OR1N2 (Homo sapiens, UniProt Q8NGR9); format: cell-based; conditions: read-out: Potency EC50; wild-type
T2 construct: expressed in transfected cells; host or cells: HEK293T cells stably expressing human RTP1S (V227I) and RTP2 (L220R)
T2 sequence (Q8NGR9 1-316): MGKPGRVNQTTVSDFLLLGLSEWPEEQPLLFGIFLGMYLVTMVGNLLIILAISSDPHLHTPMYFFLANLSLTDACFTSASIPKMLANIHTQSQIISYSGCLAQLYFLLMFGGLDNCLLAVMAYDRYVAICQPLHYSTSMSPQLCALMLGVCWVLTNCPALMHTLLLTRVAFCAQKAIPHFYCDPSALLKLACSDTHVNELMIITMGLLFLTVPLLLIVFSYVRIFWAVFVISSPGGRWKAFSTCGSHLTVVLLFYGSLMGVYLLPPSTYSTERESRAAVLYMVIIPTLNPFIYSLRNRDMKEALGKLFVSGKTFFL
Description: as §1

OR1N2 [3] = format: cell-based, human
Description: as §1

[4] = system: library of all class II OR with modified C-terminal domain RNKEVKKAIKRLFKRKCCRRR (SEQ ID NO: 221); test: Screening of the library of all class II OR with single odorants (luciferase); format: cell-based, human; conditions: full class II OR library (n = 408); maximal non-cytotoxic concentration
Procedure: All human class II OR and all key genetic variants of these OR were synthesized with a sequence coding for an identical modified C-terminal domain […] (SEQ ID NO: 221) in the vector pcDNA3.1(+) to generate a library of all class II OR with an improved C-terminal domain. Class II OR library members with modified C-terminal domains
Parallel transfection experiments were conducted with all these plasmids (n = 408) and cells expressing the different OR were stimulated with one given ligand at a time, tested at the maximal, clearly non-cytotoxic concentration. In total 26 different ligands were tested on the full library of class II receptors.

Row | Structure (SMILES) | EC50 (OR1N2 [1]) [nM] | EC50 (OR1N2 [2]) [nM] | Fold-improvement potency (OR1N2 [3]) | Fold-improvement threshold (OR1N2 [3]) | Activated OR and OR variants [4]
1 | O=C1CCCCCCCC=CCCCCCCO1 [Ambrettolide] | 1500 | 2100 | 1.5 | 5.2 | 
2 | O=Cc1ccc2c(c1)OCO2 [Heliotropine] |  |  |  |  | OR5P3
